Among the data in US20090053196A1 are binding values, retold here.

The target of test [1] is FLAG-tagged UNC-45 (UNC-45^FLAG) (Caenorhabditis elegans). Description: summary sentence of Example 7 on the earlier pull-down.
For test [2] the target is unchanged. The test is described as follows: GST pull-down with glutathione-Sepharose beads.
The target is the same in test [3]. Description: GST pull-down.

These are yes or no findings as the source states them, for the method shown. Binding calls can cover weak binding; strength is not graded here. Tags and fused reporters may be left off the sequences shown. In cells and extracts the contact can be indirect.

B1: GST-CHN-1 (enzyme, not shown: a dimerising Fc or GST)
chain: MSSGAEQHNTNGKKCYMNKRYDDAVDHYSKAIKVNPLPKYYQNRAMCYFQLNNLKMTEEDCKRALELSPNEVKPLYFLGNVFLQSKKYSEAISCLSKALYHNAVITNAPDIENALKRARHQKYEEEESKRIVQDVEFHTYLESLIEKDRQENSENPEELQRADMAKKRLTELTLATQEKRQNREVPEMLCGKITLELMKEPVIVPSGITYDREEIVQHLRRIGHFDPVTRKPLTENEIIPNYALKEVIEKFLDDNPWAKYEPGGMV
On to B1, for which the binding entry in test [1], in test [2] and in test [3] was “binds” throughout.

B2: GST-UFD-2 (enzyme, Caenorhabditis elegans, UniProt Q09349 1-984, looked up, not shown: a dimerising Fc or GST)
chain: MIEDEKAGLQPMDISDASVFFFQADVESKDFLTSLFDCEGKSDDRMLRYADAIIDVQNLNFDVSPQCLQSNIAEIITKFVLLSQDGSRRGLSRSFNFIDPDIIAGCREEDAIEFLLINFVRCHHELGKSGTSNCYKKTLESTRKAVFSVFVMIQRGYLESQLRSQHASLVFTKRLLEDTVSNVFLRTLVEYLASTDECDEDAITETFNPIFGILRSGIICQRFEDNKDEIVRQILRVMNLLLSIRLPSNGPRPLSNLLVNREDFLPTPSEKIQGREFGLMSFLGPFFSYGLESSARRPNHRVFVDCEEDARKYDGSVNTEQKLYFQRMDPIRTMLHQLMLPLASDQGSRNKTLRWIATIISTNDIRTRSHYDPSDVLCDHYMTNFLSVMYMFSEKIDLSKIIVDYPFLPSSLINISKETRLKMDESGAVAFASQFADRPDEYHFSTVCFFLTIAAQRLVIPPLMNQISEYSRHLKELKHKINALKEKLNTVSGFERAEVEKKLNYETEHWKLMSRHLLCVKTQAQDPALMASSMDFVDKQMKFILNLLCDNLDLLGDDSQLPTEVSQMFCALPEYFLEDALDFYIFAISNGMKLLMERNADWISRLTVLFTQYHYIKSPFLVSKLVRVLSSIQPPLWFNVVRLRMAQENLLMCMIKFYSDFEDNGDFYEKFNVRGNIQYMLEKMEEDMFYKGKFMDMARECGAEFIRFVNMVINDATWCIDESLSGLKSIHDVEKKMANKVEWDNTDQEIRNQDLGVYEEAKRKVKGWLGTAKSNLKLLLSITVNSPEPFRTPVLGERLAAMLNHNLSQLIGSKASELKVKDPRSYGWEPREFVSLLISIYLKLNMPAFVKYIAYDERTYSPEFFHNAIECMRKNSIVGFSQLESFEHLAEDVKKEYEAKAELEEEYDDVPEEFKDPIMDAIMVDPVKLPSGHVMDRAVIERHLLSTPNNPFNRAPLSHNELSPDSELKAKIQEWICQKRNSKK
On to B2, for which, in test [2], the binding result is “binds”.
